No constants are given. Whether binding was seen depends on the method and setting. In cells and extracts the contact can be indirect. Some binding calls cover weakened binding; strength is not graded here.
T1: PKC zeta (human (endogenous in T84)) (UniProt Q05513)
T1 sequence: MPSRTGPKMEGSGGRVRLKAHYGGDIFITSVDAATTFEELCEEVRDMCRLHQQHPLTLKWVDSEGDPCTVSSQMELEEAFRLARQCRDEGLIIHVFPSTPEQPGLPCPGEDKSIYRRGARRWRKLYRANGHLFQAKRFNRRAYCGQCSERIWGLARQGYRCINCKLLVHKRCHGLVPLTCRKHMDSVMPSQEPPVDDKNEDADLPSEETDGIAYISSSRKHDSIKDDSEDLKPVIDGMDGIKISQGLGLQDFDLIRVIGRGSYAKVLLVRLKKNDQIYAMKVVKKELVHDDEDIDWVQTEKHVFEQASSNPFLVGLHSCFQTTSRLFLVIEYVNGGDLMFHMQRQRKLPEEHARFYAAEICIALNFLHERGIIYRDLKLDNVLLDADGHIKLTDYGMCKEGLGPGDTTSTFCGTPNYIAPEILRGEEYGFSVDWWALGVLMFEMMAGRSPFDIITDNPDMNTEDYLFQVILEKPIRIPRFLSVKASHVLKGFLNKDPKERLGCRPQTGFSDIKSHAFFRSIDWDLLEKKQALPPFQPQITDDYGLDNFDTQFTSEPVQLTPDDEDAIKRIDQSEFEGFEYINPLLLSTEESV

Sequences of proteins named here, by UniProt entry; tags and fusion partners are left off.
UniProt O95832: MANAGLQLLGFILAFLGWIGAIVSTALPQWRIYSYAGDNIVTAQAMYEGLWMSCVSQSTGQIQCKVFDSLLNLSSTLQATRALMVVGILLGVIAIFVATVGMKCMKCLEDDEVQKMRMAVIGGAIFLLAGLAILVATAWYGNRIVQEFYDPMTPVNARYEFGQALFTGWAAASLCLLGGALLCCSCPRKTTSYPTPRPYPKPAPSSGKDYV
UniProt Q07157: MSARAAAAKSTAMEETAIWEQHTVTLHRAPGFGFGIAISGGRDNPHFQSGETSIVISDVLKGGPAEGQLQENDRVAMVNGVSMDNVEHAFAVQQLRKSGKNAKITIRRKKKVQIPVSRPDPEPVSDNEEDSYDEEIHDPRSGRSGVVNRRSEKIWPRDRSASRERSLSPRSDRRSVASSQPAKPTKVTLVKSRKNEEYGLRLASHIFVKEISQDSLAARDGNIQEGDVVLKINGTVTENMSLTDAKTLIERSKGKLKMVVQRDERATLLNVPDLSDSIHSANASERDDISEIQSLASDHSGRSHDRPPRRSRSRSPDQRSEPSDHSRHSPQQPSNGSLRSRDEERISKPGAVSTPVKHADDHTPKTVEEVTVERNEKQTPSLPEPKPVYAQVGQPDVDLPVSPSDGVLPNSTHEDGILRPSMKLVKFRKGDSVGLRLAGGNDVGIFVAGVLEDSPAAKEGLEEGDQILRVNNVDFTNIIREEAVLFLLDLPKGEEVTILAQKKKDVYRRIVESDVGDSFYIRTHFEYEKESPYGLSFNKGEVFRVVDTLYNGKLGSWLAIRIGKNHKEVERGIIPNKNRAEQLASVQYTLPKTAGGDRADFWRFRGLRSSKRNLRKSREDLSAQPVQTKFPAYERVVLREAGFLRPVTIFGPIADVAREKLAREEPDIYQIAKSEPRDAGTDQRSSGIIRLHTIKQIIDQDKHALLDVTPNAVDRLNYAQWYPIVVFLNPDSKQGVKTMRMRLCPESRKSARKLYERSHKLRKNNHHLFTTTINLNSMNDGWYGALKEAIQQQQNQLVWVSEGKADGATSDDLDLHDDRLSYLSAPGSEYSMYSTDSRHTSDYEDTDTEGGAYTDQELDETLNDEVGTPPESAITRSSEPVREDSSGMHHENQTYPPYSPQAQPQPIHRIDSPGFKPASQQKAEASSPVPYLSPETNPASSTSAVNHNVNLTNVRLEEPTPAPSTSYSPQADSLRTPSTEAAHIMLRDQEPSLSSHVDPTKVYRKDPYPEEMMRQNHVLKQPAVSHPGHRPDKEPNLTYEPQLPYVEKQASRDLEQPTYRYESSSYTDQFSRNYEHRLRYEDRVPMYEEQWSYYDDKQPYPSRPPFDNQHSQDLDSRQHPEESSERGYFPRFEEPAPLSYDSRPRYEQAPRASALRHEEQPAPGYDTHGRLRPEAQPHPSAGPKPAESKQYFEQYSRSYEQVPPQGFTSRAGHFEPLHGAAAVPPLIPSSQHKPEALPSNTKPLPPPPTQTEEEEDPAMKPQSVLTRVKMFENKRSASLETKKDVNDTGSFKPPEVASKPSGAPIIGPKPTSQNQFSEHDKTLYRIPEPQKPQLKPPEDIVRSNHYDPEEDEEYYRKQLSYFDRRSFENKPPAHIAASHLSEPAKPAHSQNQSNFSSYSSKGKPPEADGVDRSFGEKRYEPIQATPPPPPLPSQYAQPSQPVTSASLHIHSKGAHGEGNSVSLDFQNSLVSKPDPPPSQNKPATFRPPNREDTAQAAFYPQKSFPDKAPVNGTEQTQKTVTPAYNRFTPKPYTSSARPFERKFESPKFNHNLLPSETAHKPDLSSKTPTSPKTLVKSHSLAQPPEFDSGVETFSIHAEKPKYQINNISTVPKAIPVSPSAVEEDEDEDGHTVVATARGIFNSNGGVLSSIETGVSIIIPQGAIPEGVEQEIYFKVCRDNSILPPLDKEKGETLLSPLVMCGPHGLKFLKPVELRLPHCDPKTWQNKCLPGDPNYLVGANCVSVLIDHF

B1: occludin (protein, UniProt Q16625 1-522)
chain: MSSRPLESPPPYRPDEFKPNHYAPSNDIYGGEMHVRPMLSQPAYSFYPEDEILHFYKWTSPPGVIRILSMLIIVMCIAIFACVASTLAWDRGYGTSLLGGSVGYPYGGSGFGSYGSGYGYGYGYGYGYGGYTDPRAAKGFMLAMAAFCFIAALVIFVTSVIRSEMSRTRRYYLSVIIVSAILGIMVFIATIVYIMGVNPTAQSSGSLYGSQIYALCNQFYTPAATGLYVDQYLYHYCVVDPQEAIAIVLGFMIIVAFALIIFFAVKTRRKMDRYDKSNILWDKEHIYDEQPPNVEEWVKNVSAGTQDVPSPPSDYVERVDSPMAYSSNGKVNDKRFYPESSYKSTPVPEVVQELPLTSPVDDFRQPRYSSGGNFETPSKRAPAKGRAGRSKRTEQDHYETDYTTGGESCDELEEDWIREYPPITSDQQRQLYKRNFDTGLQEYKSLQSELDEINKELSRLDKELDDYREESEEYMAAADEYNRLKQVKGSADYKSKKNHCKQLKSKLSHIKKMVGDYDRQKT
B2: ZO-2 (protein, UniProt Q9UDY2 1-1190)
chain: MPVRGDRGFPPRRELSGWLRAPGMEELIWEQYTVTLQKDSKRGFGIAVSGGRDNPHFENGETSIVISDVLPGGPADGLLQENDRVVMVNGTPMEDVLHSFAVQQLRKSGKVAAIVVKRPRKVQVAALQASPPLDQDDRAFEVMDEFDGRSFRSGYSERSRLNSHGGRSRSWEDSPERGRPHERARSRERDLSRDRSRGRSLERGLDQDHARTRDRSRGRSLERGLDHDFGPSRDRDRDRSRGRSIDQDYERAYHRAYDPDYERAYSPEYRRGARHDARSRGPRSRSREHPHSRSPSPEPRGRPGPIGVLLMKSRANEEYGLRLGSQIFVKEMTRTGLATKDGNLHEGDIILKINGTVTENMSLTDARKLIEKSRGKLQLVVLRDSQQTLINIPSLNDSDSEIEDISEIESNRSFSPEERRHQYSDYDYHSSSEKLKERPSSREDTPSRLSRMGATPTPFKSTGDIAGTVVPETNKEPRYQEDPPAPQPKAAPRTFLRPSPEDEAIYGPNTKMVRFKKGDSVGLRLAGGNDVGIFVAGIQEGTSAEQEGLQEGDQILKVNTQDFRGLVREDAVLYLLEIPKGEMVTILAQSRADVYRDILACGRGDSFFIRSHFECEKETPQSLAFTRGEVFRVVDTLYDGKLGNWLAVRIGNELEKGLIPNKSRAEQMASVQNAQRDNAGDRADFWRMRGQRSGVKKNLRKSREDLTAVVSVSTKFPAYERVLLREAGFKRPVVLFGPIADIAMEKLANELPDWFQTAKTEPKDAGSEKSTGVVRLNTVRQIIEQDKHALLDVTPKAVDLLNYTQWFPIVIFFNPDSRQGVKTMRQRLNPTSNKSSRKLFDQANKLKKTCAHLFTATINLNSANDSWFGSLKDTIQHQQGEAVWVSEGKMEGMDDDPEDRMSYLTAMGADYLSCDSRLISDFEDTDGEGGAYTDNELDEPAEEPLVSSITRSSEPVQHEESIRKPSPEPRAQMRRAASSDQLRDNSPPPAFKPEPPKAKTQNKEESYDFSKSYEYKSNPSAVAGNETPGASTKGYPPPVAAKPTFGRSILKPSTPIPPQEGEEVGESSEEQDNAPKSVLGKVKIFEKMDHKARLQRMQELQEAQNARIEIAQKHPDIYAVPIKTHKPDPGTPQHTSSRPPEPQKAPSRPYQDTRGSYGSDAEEEEYRQQLSEHSKRGYYGQSARYRDTEL

target: T1, PKC zeta (human (endogenous in T84)); assay: co-IP; T84 100,000 x g membranes in 2% CHAPS, rabbit anti-PKC zeta antiserum (Sigma P0713) and Protein A-Sepharose at 4°C, washed with 2% CHAPS, eluted with the PKC zeta peptide antigen in 100 mM NaCl, 15 mM HEPES pH 7.5; western blot; control anti-serum in parallel

binding, binds:
claudin-1 (from UniProt O95832 1-211)
ZO-1 (from UniProt Q07157 1-1748)
B1
B2

Reference: paper PMC1712231
